## Library screening results

The chains behind the UniProt entries cited, without tags or fusion partners.
UniProt E9BF75, entry or part of it: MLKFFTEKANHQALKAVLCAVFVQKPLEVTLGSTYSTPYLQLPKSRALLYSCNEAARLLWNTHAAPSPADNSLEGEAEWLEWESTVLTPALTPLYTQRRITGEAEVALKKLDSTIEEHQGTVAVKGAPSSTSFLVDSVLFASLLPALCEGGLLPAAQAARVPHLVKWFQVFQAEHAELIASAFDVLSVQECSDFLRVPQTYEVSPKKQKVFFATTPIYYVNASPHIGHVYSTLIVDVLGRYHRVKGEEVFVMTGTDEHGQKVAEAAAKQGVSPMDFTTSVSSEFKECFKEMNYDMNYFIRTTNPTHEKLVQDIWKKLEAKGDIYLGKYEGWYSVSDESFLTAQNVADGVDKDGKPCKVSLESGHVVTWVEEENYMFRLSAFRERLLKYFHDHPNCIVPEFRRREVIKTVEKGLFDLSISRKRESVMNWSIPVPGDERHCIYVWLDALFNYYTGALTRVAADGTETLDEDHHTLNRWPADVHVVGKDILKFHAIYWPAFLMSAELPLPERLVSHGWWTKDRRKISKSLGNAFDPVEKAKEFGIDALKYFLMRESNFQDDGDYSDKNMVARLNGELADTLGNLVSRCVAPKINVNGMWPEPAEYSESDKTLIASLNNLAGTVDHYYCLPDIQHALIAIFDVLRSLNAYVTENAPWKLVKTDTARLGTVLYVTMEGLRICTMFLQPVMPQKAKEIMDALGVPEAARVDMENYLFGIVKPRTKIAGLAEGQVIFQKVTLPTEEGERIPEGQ

A: 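Assay on Mycobacterium tuberculosis, filed only as a heat shock assay from Cornell; the read-out is not stated. The concentration is filed as 10 mM, unlikely as a test dose, so the dose is not known. The record gives no direction; compounds that gave an IC50 in retests scored well above the rest, so higher reads as stronger inhibition. About 69,000 compounds were tested under these conditions; 1.4% (about 930) showed 50% or more at least once.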
B: 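Methionyl-tRNA synthetase (putative), Leishmania donovani (UniProt E9BF75). Primary screen of methionyl-tRNA synthetase; the read-out is not stated. The test concentration is not given. The values are filed as inhibition. About 68,000 compounds were tested under these conditions; 0.035% (about 24) showed 50% or more at least once.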
C: 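Whole-cell assay for inhibitors of Mycobacterium tuberculosis growth, labelled Cornell in the record; the read-out is not stated. The concentration is filed as 10 mM, unlikely as a test dose, so the dose is not known. The record gives no direction; compounds strong in two other growth screens of this library score well above the rest, so higher reads as stronger inhibition. Of about 53,000 compounds tested this way, about 900 (1.7%) reached 50% or more in at least one test.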

All values are in %.
The record does not define 0% and 100%; most values in the screen are far below 50% and negative numbers occur (in some assays of this library far below -100).
This is an unselected part of the compounds tested.
A dash means the value is not listed here; it may have been measured.

{"structure": "N#Cc1cccc(CN2CC3(CCCCN3c3cncnc3)CC2=O)c1", "stereo": "stereo not shown", "B": 9.343}
{"structure": "c1csc(-c2nc(CN3CCCC3Cn3cccn3)co2)c1", "stereo": "stereo not shown", "A": -13.66, "B": 20.96, "C": 24.9}
{"structure": "[H][C@@]12OCCN(C(=O)C3CCOCC3)[C@@]1([H])CC[C@H]2OC", "A": 5.745, "C": 12.38}
{"structure": "Cn1nc(Cn2ccnc2)c2c1CN(c1nccs1)C2.O=C(O)C(F)(F)F.O=C(O)C(F)(F)F", "A": -33.41, "C": 7.188}
{"structure": "O=C(O)C(F)(F)F.c1ccc(CN2CCc3c(CNc4nccs4)n[nH]c3C2)nc1", "A": -23, "C": -5.083}
{"structure": "O=C(Cc1c[nH]c2ccccc12)N1CCC(Nc2cccnc2)CC1", "A": -5.944, "B": 21.17}
{"structure": "CC(CCc1ccccc1)N1CCC(C(=O)NCc2ccccc2)CC1", "stereo": "stereo not shown", "A": -3.746, "B": 15.74, "C": 14.52}
{"structure": "COc1ccc(CNCC2CNc3cc(C)nn3C2)cn1", "stereo": "stereo not shown", "A": -36.88, "B": 19.13}
{"structure": "CSc1ccc(C(CN)N2CCc3sccc3C2)cc1", "stereo": "stereo not shown", "A": 39.49, "B": 9.859, "C": 38.64}
{"structure": "COCCNC(=O)C[C@@H]1COC[C@H]2CN(C(=O)C3CCOCC3)C[C@@H]12", "B": 11.43}
{"structure": "O=C([C@H]1CCCO1)N1Cc2nccn2CC(COc2cccnc2)C1", "stereo": "stereo partly shown", "A": -18.99, "B": 7.397, "C": -24.86}
{"structure": "Cc1ccoc1C(=O)NCc1ccnc(OCC(F)(F)F)c1", "A": 9.384, "B": 21.31}
{"structure": "CCN(C(=O)Nc1nncs1)C(C)c1cccc(OC)c1", "stereo": "stereo not shown", "A": -1.299, "B": 9.254, "C": -3.406}
{"structure": "CC(=O)N1CCN(C(=O)NCc2ccccc2Cn2cncn2)CC1", "A": 1.16, "B": 8.629}
{"structure": "CNC(=O)c1cccnc1N1CCC(Oc2ccc(F)cc2)CC1", "A": 7.96, "B": 5.915, "C": -10.05}
{"structure": "O=C1N(Cc2ccc(F)c(F)c2)CCCC12CCN(C1CCCC1)C2", "stereo": "stereo not shown", "A": 48.94, "B": 17.12, "C": 18.25}
{"structure": "CC(=O)N1CCC2(CCN(Cc3ccccn3)C2=O)C1.O=C(O)C(F)(F)F", "stereo": "stereo not shown", "A": -16.99}
{"structure": "Cc1cccnc1NC(=O)C1CCN(C(C)C(=O)NC(C)(C)C)CC1", "stereo": "stereo not shown", "A": -12.45, "B": 9.409, "C": -26.69}
{"structure": "CC(=O)N1CCC(C(=O)N2CCC2c2nc(-c3ccc(C)s3)no2)CC1", "stereo": "stereo not shown", "A": -25.08, "B": 2.907, "C": -6.67}
{"structure": "CN1CCC/C1=N\\S(=O)(=O)c1ccc(NC(=O)c2cccs2)cc1", "A": 17.37, "B": 12.2, "C": 45.84}
{"structure": "c1cc(CNc2cnc(C3CCCN3)cn2)ccn1", "stereo": "stereo not shown", "B": 11.01}
{"structure": "O[C@@H]1CN(Cc2ccc(F)cc2)CC[C@H]1NCc1ccccn1", "B": 11.56}
{"structure": "O=C(c1cc(-c2ccco2)nc2c(Cl)cccc12)N1CCS(=O)(=O)CC1", "A": 49.63, "B": 8.362, "C": 28.92}
{"structure": "COCCC(=O)N1CCCC(CCc2ccc(F)c(F)c2)C1", "stereo": "stereo not shown", "A": 2.374, "B": 7.563}
{"structure": "FC(F)(F)CCN(Cc1ccon1)C1CCC1", "A": 4.704, "B": 7.692, "C": -25.54}
{"structure": "Cc1ccc(C(CCNCCCN(C)C)C2CCOC(C)(C)C2)cc1", "stereo": "stereo not shown", "B": 7.008}
{"structure": "CCCc1c(C(=O)N2CCN(c3ncccn3)CC2)cnn1C", "A": -5.197, "B": 20.88, "C": -50.65}
{"structure": "Cc1cn2c(n1)CCC(NC(=O)c1oc(Br)cc1C)C2", "stereo": "stereo not shown", "A": -14.21, "B": 19.36, "C": -43.16}
{"structure": "CS(=O)(=O)N1CCOCC2(CCN(c3cnccn3)CC2)C1", "A": 1.488, "B": 10.64, "C": -11.14}
{"structure": "CCN1Cc2cc3c(cc2NCCC1=O)OCO3", "A": -9.249, "B": -0.2703, "C": -32.17}
{"structure": "CCN(C)C(=O)c1cccc(S(=O)(=O)NCCc2csc(N)n2)c1", "A": -7.489, "B": 8.362}
{"structure": "COc1ccc(CN2C[C@@H](CN(C)C)[C@@H](CO)C2)cc1OC", "A": -15.18, "B": 15.73, "C": -9.976}
{"structure": "O=C(CCCc1ccc(Cl)cc1)N1CCN(C(=O)c2ccc[nH]2)CC1", "A": 21.39, "B": 9.639, "C": 31.11}
{"structure": "CNc1cc(CNC(=O)c2ccncc2)nc(-c2ccncc2)n1", "A": -12.49, "B": 10.59}
{"structure": "[H][C@@]12CN(Cc3cccc(C(F)(F)F)c3)C[C@]1(C(=O)O)CNC2=O", "A": -32.36}

Some entries from above, unchanged:

structure,A,B,C
CSc1ccc(C(CN)N2CCc3sccc3C2)cc1 (stereo not shown),39.49,9.859,38.64
CC(=O)N1CCC2(CCN(Cc3ccccn3)C2=O)C1.O=C(O)C(F)(F)F (stereo not shown),-16.99,-,-
Cc1cn2c(n1)CCC(NC(=O)c1oc(Br)cc1C)C2 (stereo not shown),-14.21,19.36,-43.16

The values are deposited in ChEMBL (CHEMBL3988442, “University of Dundee, Small-Polar-MMV Screening Library” (2021)).